In the supplement of paper PMC6411743:
± gives the standard deviation of the averaged measurements. Only a part is listed here, and it is no random draw.

The chains behind the UniProt entries cited, without tags or fusion partners. Where a name states a change or a piece, a line headed by the entry shows the natural chain unless it says otherwise.
UniProt Q8NG11: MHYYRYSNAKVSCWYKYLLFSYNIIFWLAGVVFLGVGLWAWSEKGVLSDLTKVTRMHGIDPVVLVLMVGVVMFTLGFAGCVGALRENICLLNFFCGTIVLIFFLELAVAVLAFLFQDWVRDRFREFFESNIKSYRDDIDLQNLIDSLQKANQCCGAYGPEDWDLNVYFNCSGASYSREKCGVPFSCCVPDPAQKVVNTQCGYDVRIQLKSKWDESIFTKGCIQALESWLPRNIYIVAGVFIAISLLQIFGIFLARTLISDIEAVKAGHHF
UniProt Q9NVX0: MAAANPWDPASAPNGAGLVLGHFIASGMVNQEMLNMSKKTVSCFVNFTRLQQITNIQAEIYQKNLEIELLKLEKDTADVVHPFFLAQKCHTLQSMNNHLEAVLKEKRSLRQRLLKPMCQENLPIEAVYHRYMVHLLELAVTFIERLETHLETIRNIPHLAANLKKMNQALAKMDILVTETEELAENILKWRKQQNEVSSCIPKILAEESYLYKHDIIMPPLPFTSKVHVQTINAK
UniProt Q15653: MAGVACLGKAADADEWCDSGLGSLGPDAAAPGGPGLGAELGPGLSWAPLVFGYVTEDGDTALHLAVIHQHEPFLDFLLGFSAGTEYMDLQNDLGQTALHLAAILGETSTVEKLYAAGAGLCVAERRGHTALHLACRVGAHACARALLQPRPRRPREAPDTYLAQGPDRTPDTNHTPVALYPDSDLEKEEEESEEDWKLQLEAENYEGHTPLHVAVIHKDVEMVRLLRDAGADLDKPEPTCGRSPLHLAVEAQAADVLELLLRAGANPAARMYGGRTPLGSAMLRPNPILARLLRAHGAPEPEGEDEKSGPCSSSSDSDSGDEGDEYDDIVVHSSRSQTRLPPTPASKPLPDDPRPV
UniProt Q02978: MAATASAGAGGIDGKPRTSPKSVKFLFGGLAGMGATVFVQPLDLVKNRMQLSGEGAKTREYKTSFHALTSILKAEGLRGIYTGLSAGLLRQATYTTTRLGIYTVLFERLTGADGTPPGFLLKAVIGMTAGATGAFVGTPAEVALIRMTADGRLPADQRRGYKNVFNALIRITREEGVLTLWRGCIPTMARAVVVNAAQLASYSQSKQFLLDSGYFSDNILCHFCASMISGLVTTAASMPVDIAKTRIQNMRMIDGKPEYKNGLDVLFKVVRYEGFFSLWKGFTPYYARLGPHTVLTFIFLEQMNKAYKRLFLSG
UniProt Q9BQD3: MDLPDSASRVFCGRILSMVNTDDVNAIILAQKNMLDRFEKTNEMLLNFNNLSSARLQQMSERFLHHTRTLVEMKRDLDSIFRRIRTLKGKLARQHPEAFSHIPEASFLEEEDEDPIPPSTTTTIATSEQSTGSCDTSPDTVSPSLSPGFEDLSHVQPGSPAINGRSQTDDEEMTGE
UniProt O14734: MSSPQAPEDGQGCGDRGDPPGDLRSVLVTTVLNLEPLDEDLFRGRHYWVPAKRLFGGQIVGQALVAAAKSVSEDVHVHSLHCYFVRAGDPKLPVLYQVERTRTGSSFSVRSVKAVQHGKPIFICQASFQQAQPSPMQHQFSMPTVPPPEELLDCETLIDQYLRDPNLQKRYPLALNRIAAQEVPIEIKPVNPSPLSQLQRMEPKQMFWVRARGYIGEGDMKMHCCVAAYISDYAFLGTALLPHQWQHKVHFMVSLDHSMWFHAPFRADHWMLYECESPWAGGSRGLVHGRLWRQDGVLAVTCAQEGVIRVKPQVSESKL
UniProt Q01433: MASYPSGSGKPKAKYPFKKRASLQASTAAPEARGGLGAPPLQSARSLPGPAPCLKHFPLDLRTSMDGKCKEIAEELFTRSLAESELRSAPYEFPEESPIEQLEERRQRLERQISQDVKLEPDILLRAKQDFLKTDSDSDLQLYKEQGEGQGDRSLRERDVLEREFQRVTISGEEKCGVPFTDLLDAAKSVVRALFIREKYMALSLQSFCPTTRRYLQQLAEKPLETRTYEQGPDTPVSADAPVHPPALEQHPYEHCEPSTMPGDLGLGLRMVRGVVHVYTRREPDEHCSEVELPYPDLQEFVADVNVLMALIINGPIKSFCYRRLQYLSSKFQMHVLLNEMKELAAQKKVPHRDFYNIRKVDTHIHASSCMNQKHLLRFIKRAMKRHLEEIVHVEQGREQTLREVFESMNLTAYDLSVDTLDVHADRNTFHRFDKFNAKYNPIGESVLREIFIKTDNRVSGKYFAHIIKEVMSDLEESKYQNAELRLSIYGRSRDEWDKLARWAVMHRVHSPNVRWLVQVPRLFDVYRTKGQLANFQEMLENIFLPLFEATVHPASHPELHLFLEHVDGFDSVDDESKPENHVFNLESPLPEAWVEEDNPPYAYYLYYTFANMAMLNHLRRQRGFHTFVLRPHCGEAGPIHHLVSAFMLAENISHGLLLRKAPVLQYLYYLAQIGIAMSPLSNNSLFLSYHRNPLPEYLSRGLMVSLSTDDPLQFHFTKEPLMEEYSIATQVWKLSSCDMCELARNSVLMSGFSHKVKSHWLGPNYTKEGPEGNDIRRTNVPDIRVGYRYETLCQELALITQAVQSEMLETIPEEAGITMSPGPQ
UniProt O14578, whole entry: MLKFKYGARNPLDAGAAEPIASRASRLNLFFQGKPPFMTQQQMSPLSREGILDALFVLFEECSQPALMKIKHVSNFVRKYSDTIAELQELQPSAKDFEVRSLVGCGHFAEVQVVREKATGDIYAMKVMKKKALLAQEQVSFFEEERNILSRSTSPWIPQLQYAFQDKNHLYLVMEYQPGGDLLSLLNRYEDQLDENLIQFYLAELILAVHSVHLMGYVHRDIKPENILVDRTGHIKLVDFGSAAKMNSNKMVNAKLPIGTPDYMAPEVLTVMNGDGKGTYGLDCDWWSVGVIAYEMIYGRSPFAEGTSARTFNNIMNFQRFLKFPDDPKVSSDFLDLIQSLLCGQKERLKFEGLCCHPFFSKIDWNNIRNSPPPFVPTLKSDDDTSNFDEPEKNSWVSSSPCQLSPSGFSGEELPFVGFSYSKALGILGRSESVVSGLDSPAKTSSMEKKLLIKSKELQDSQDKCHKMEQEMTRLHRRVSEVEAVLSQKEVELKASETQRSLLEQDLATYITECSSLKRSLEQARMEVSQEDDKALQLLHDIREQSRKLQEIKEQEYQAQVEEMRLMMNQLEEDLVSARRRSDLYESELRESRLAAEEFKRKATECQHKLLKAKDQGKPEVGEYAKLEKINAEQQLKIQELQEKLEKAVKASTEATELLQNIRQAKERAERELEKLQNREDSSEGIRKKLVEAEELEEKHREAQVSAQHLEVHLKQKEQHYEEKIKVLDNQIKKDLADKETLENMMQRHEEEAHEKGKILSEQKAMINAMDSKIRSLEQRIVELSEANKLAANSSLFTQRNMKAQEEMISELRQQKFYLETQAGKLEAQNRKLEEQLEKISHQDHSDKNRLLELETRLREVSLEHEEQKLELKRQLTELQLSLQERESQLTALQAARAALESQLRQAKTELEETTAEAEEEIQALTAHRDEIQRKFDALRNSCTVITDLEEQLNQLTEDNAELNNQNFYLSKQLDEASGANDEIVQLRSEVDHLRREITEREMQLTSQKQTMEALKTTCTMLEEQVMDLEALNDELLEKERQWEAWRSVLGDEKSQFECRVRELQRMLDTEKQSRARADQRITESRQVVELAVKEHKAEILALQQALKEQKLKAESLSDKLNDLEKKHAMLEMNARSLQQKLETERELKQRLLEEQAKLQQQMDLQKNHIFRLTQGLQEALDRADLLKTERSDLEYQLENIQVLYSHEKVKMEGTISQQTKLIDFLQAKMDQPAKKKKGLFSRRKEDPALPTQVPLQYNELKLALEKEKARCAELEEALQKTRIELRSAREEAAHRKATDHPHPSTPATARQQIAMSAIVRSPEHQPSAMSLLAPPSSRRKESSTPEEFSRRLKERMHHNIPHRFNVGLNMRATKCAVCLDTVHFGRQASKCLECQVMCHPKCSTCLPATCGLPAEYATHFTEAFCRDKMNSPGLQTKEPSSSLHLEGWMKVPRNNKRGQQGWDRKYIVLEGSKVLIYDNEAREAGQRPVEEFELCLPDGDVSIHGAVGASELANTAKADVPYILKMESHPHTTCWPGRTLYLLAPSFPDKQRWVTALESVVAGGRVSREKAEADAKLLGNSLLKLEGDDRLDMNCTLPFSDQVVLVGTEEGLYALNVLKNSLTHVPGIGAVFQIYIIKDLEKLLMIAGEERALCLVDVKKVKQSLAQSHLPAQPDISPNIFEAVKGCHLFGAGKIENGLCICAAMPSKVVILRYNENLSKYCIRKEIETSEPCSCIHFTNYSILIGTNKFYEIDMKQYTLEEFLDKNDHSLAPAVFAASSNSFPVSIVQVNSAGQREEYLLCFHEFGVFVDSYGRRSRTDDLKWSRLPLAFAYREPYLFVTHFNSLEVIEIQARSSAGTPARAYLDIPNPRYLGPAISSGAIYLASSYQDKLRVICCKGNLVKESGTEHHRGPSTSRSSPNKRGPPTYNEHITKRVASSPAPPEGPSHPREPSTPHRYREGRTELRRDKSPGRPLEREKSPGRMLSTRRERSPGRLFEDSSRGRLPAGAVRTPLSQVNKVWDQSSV
UniProt Q99611, whole entry: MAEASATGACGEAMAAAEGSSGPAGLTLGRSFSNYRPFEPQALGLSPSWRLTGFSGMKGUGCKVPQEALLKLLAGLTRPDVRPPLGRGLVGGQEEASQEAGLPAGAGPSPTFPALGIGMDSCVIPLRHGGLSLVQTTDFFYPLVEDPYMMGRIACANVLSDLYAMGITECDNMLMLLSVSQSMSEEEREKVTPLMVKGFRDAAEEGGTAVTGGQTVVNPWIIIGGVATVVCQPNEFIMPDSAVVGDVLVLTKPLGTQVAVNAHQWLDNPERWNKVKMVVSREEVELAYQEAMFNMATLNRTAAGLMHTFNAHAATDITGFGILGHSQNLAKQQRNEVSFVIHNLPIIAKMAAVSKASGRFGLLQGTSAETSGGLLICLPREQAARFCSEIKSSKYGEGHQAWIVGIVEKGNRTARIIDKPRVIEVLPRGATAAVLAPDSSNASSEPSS
UniProt Q9HAH7: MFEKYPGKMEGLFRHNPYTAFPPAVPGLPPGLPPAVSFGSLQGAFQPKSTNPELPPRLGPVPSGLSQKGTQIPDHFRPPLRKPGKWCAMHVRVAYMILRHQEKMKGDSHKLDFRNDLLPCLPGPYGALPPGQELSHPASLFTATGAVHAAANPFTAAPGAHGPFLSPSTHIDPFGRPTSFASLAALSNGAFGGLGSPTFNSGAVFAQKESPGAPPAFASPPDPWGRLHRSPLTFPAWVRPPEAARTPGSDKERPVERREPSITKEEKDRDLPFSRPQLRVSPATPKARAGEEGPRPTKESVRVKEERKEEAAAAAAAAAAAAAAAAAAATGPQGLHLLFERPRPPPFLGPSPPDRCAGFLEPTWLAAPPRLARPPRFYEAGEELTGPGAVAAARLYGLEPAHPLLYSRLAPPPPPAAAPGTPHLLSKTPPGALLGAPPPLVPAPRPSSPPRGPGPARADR
UniProt Q7RTR2: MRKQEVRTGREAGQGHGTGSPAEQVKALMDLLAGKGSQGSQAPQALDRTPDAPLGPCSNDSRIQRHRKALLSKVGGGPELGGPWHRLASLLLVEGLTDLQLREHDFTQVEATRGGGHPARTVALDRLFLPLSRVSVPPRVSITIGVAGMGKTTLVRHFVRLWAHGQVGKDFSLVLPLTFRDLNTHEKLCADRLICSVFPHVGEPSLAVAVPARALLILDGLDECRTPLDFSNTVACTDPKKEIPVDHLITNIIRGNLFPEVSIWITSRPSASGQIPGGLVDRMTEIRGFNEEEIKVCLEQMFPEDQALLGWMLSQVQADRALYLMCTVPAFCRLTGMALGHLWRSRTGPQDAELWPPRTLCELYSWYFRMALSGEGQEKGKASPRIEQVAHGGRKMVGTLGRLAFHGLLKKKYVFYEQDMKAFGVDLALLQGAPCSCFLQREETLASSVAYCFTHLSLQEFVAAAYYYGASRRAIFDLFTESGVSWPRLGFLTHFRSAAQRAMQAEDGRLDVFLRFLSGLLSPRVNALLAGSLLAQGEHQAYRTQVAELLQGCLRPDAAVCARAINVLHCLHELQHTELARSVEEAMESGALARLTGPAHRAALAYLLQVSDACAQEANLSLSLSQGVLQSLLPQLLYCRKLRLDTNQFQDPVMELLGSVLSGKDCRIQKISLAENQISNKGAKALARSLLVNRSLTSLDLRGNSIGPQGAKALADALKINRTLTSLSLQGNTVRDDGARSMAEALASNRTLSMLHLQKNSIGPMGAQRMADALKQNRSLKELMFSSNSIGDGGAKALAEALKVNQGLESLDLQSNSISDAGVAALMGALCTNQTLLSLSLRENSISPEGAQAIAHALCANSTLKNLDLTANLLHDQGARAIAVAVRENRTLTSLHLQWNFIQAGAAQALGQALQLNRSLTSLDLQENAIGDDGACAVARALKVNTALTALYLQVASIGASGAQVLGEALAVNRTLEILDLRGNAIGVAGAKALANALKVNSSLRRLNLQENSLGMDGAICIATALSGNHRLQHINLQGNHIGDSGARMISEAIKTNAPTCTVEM

Compound: Nc1ncnc2c1ncn2[C@@H]1O[C@H](COP(=O)(O)OP(=O)(O)OP(=O)(O)O)[C@@H](O)[C@H]1O [adenosine triphosphate]
Assay: NP40-soluble protein abundance relative to vehicle (solubility fold change) (ratio); higher = more soluble protein in presence of ATP
Procedure, shortened: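 Eight concentrations, 0.1 to 10 mM, were tested on Jurkat crude lysate for 10 min at room temperature and then 3 min at 37 °C, in three independent experiments. The lysate was solubilised with 0.8% NP40 and benzonase, ultracentrifuged, and the supernatant TMT-labelled for LC-MS/MS. Each value is the fold change against the detergent-processed vehicle in its own replicate, from vsn-normalised intensities.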

Target | NP40-soluble protein abundance (concentration: 1mM) | NP40-soluble protein abundance (concentration: 2mM) | NP40-soluble protein abundance (concentration: 4mM) | NP40-soluble protein abundance (concentration: 6mM) | NP40-soluble protein abundance (concentration: 8mM) | NP40-soluble protein abundance (concentration: 10mM)
H7BXY6 and related entries (UniProt Q8NG11) | 0.926 ± 0.037 | 0.997 ± 0.085 | 0.905 ± 0.11 | 0.984 ± 0.081 | 0.912 ± 0.05 | 0.894 ± 0.052
H3BP16 and related entries (UniProt Q9NVX0) | 1.02 ± 0.02 | 1.01 ± 0.026 | 1.04 ± 0.017 | 0.974 ± 0.056 | 1.06 ± 0.03 | 0.996 ± 0.058
H9KVB4 and related entries (UniProt O15417) | 0.983 ± 0.18 | 1.04 ± 0.015 | 0.964 ± 0.013 | 0.884 ± 0.17 | 0.9296 ± 0.0052 | 1.02 ± 0.015
J3KNV1 and related entries (UniProt O60281) | 1.06 ± 0.073 | 1.1 ± 0.023 | 1.12 ± 0.085 | 1.09 ± 0.019 | 1.06 ± 0.076 | 1.07 ± 0.031
G5E9C2 and related entries (UniProt Q15653) | 0.983 ± 0.061 | 0.982 ± 0.032 | 0.969 ± 0.011 | 0.985 ± 0.025 | 0.9606 ± 0.003 | 0.967 ± 0.016
H3BU53 and related entries (UniProt Q8IWI9) | 1.03 ± 0.027 | 1.03 ± 0.049 | 1.04 ± 0.061 | 1.04 ± 0.1 | 0.994 ± 0.057 | 1.06 ± 0.073
H7BZB3 and related entries (UniProt P27708) | 1.03 ± 0.064 | 0.968 ± 0.029 | 0.944 ± 0.042 | 0.891 ± 0.09 | 0.984 ± 0.097 | 0.978 ± 0.094
I3L1P8 and related entries (UniProt Q02978) | 0.888 ± 0.16 | 0.863 ± 0.076 | 0.874 ± 0.015 | 0.79 ± 0.088 | 0.891 ± 0.048 | 0.957 ± 0.038
H3BQD1 and related entries (UniProt Q93009) | 1.05 ± 0.11 | 1 ± 0.078 | 1 ± 0.077 | 0.971 ± 0.1 | 1.04 ± 0.054 | 1 ± 0.077
M0QY77 and related entries (UniProt Q9BQD3) | 0.872 ± 0.031 | 0.951 ± 0.057 | 0.909 ± 0.057 | 0.792 ± 0.029 | 0.843 ± 0.061 | 0.838 ± 0.093
H7C5A7 and related entries (UniProt O14734) | 0.971 ± 0.038 | 0.972 ± 0.055 | 1.01 ± 0.076 | 0.923 ± 0.056 | 0.941 ± 0.041 | 0.982 ± 0.071
K7EJC2 and related entries (UniProt Q9P107) | 1.02 ± 0.058 | 1.01 ± 0.025 | 1.08 ± 0.068 | 1.04 ± 0.063 | 0.993 ± 0.066 | 1.01 ± 0.045
K7EMX1 and related entries (UniProt Q8NBT2) | 0.947 ± 0.12 | 0.914 ± 0.092 | 0.909 ± 0.032 | 0.975 ± 0.054 | 0.93 ± 0.043 | 0.841 ± 0.077
H0YLN8 and related entries (UniProt Q96QT4) | 1.12 ± 0.18 | 1.02 ± 0.039 | 1.17 ± 0.12 | 1.01 ± 0.068 | 0.99025 ± 0.00084 | 1.008 ± 0.0067
H0Y4T4 and related entries (UniProt Q5SW79) | 1.07 ± 0.048 | 1.09 ± 0.065 | 1.11 ± 0.055 | 1.19 ± 0.12 | 1.13 ± 0.05 | 1.18 ± 0.055
H0Y360 and related entries (UniProt Q01433) | 0.956 ± 0.025 | 0.953 ± 0.023 | 0.936 ± 0.014 | 0.915 ± 0.015 | 0.969 ± 0.013 | 0.952 ± 0.046
H7BYJ3 and related entries (UniProt O14578) | 0.996 ± 0.032 | 0.997 ± 0.026 | 0.991 ± 0.019 | 1.03 ± 0.016 | 0.998 ± 0.016 | 0.996 ± 0.018
H0YEU4 and related entries (UniProt Q03164) | 1.09 ± 0.024 | 1.13 ± 0.031 | 1.16 ± 0.05 | 1.2 ± 0.086 | 1.18 ± 0.05 | 1.23 ± 0.042
J3KR58 and related entries (UniProt Q99611) | 1.02 ± 0.016 | 1.02 ± 0.055 | 0.992 ± 0.066 | 0.964 ± 0.016 | 0.995 ± 0.067 | 1 ± 0.015
H7BYF2 and related entries (UniProt Q9BVL2) | 0.915 ± 0.084 | 0.94 ± 0.018 | 0.955 ± 0.057 | 1.01 ± 0.073 | 0.932 ± 0.058 | 0.933 ± 0.025
UniProt I3L0E3 | 1.03 ± 0.033 | 0.949 ± 0.062 | 0.948 ± 0.076 | 0.884 ± 0.13 | 0.9 ± 0.12 | 0.864 ± 0.05
J3KQN4 and related entries (UniProt P83881) | 0.8462 ± 0.0032 | 0.845 ± 0.09 | 0.798 ± 0.095 | 0.74 ± 0.084 | 0.7211 ± 0.0045 | 0.847 ± 0.074
K7EJH8 and related entries (UniProt O43707) | 0.841 ± 0.022 | 0.824 ± 0.025 | 0.814 ± 0.035 | 0.883 ± 0.05 | 0.87 ± 0.044 | 0.903 ± 0.046
J3KNZ9 (UniProt Q9HAH7) | 1.09 ± 0.06 | 1.08 ± 0.11 | 1.1 ± 0.17 | 1.12 ± 0.12 | 1.02 ± 0.054 | 1.07 ± 0.16
H3BPZ0 and related entries (UniProt Q6PCT2) | 1.026 ± 0.0099 | 1.04 ± 0.019 | 1.06 ± 0.075 | 1.08 ± 0.032 | 1.01 ± 0.035 | 1.07 ± 0.035
I3L2J0 (UniProt Q96RK0) | 0.94 ± 0.058 | 0.955 ± 0.11 | 0.933 ± 0.084 | 0.946 ± 0.084 | 0.921 ± 0.06 | 0.931 ± 0.098
J3KNG8 and related entries (UniProt Q8TF40) | 1.02 ± 0.12 | 1.02 ± 0.057 | 1.05 ± 0.13 | 1.02 ± 0.018 | 0.958 ± 0.078 | 0.983 ± 0.053
J3QL56 and related entries (UniProt O75880) | 0.822 ± 0.031 | 0.879 ± 0.08 | 0.806 ± 0.12 | 0.82 ± 0.049 | 0.785 ± 0.1 | 0.857 ± 0.03
I3L072 and related entries (UniProt Q9BSJ5) | 0.939 ± 0.094 | 0.962 ± 0.048 | 0.963 ± 0.14 | 1.01 ± 0.17 | 0.977 ± 0.17 | 0.96 ± 0.1
H3BLT9 and related entries (UniProt Q7RTR2) | 1.11 ± 0.035 | 1.1 ± 0.063 | 1.09 ± 0.031 | 1.06 ± 0.1 | 1.07 ± 0.023 | 1.14 ± 0.087

Part of the list above, as tab-separated lines.
Target	NP40-soluble protein abundance (concentration: 1mM)	NP40-soluble protein abundance (concentration: 2mM)	NP40-soluble protein abundance (concentration: 4mM)	NP40-soluble protein abundance (concentration: 6mM)	NP40-soluble protein abundance (concentration: 8mM)	NP40-soluble protein abundance (concentration: 10mM)
M0QY77 and related entries (UniProt Q9BQD3)	0.872 ± 0.031	0.951 ± 0.057	0.909 ± 0.057	0.792 ± 0.029	0.843 ± 0.061	0.838 ± 0.093
H7C5A7 and related entries (UniProt O14734)	0.971 ± 0.038	0.972 ± 0.055	1.01 ± 0.076	0.923 ± 0.056	0.941 ± 0.041	0.982 ± 0.071
